The campaign covered roughly 360,000 compounds. About 9,100 (2.5%) were called active. Inconclusive means that the source gave no clear call. Such entries were picked first, then a sample of the others. No stated cut-off is given here; in the data, active means max response below about -50%; inconclusive means no clear call, values can overlap the other calls; inactive means above that.
Biological target: D(3) dopamine receptor (Homo sapiens) (UniProt P35462)
Assay: qHTS of D3 Dopamine Receptor Antagonist: qHTS
Details: D3R cells, DiscoveRx beta-arrestin luminescence, antagonist mode; hits give low values
Outline: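 Cells plated overnight at 1500 cells/well, then exposed to library compounds with dopamine controls for 90 minutes at 37 degrees C. DiscoveRx reagent added for 30–60 minutes at room temperature; luminescence read, quantitative HTS format.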
On the % scale 0 is the no-effect control and ±100 the full control effect.

Chains of the proteins cited; added tags and fusions are not shown.
UniProt P35462, whole entry, looked up: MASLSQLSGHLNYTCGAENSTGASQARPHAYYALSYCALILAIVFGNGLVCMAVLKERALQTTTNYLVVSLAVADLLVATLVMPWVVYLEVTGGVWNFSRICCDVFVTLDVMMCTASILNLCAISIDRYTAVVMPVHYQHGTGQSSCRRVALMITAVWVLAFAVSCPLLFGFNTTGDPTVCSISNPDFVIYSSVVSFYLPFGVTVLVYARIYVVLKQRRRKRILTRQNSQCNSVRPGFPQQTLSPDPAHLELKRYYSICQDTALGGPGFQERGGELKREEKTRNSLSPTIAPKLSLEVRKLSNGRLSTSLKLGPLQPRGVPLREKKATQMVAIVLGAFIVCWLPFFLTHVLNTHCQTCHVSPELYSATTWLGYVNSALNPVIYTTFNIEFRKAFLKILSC

Q: With `O=C(O)c1ccc(CSCc2c(F)cccc2Cl)o1` as the molecule, how does the max response, negative = inhibition read?
A: inconclusive: -44.3%

Q: `CCO[C@@H]1OC(C(=O)O)=C[C@H](c2coc3ccccc3c2=O)[C@H]1CCCO` was tested. Which max response, negative = inhibition did it give?
A: inconclusive: -32.1%

Q: For `CCCCNCCS(=O)(=O)NCc1ccccc1`, which max response, negative = inhibition is on record?
A: active: -71.2%

Q: With `c1ccc(Cc2nnc3sc(-c4ccc5c(c4)OCCO5)nn23)cc1` as the molecule, how does the max response, negative = inhibition read?
A: inconclusive: -36.5%

Q: Which max response, negative = inhibition does the source give for `CCC(C)(C)n1nnnc1C(c1cc2cc(OC)ccc2[nH]c1=O)N1CCc2ccccc21` (configuration not stated) here?
A: inactive: -3.32%

Q: For `Cc1cc(NC(=O)CSc2nc(C3CCCCC3)nc3ccccc23)no1`, which max response, negative = inhibition is on record?
A: inconclusive: -41.2%

Q: How did the max response, negative = inhibition turn out when `CC1CCC(C(C)C)C(OC(=O)CSc2nccc(=O)[nH]2)C1` (configuration not stated) was run?
A: inactive: 21.2%

Q: How did the max response, negative = inhibition turn out when `Fc1ccc2cnc(C3=CCCCC3)cc2c1` was run?
A: inconclusive: -36.3%

Q: With `COc1ccc(C2(CNC(C)=O)CCOCC2)cc1OC` as the molecule, how does the max response, negative = inhibition read?
A: inactive: 23.1%

Q: Which max response, negative = inhibition does the source give for `Oc1ccc(N=Nc2ccc3c(c2)OCCO3)c2cccnc12` here?
A: inconclusive: -42.5%

Q: How did the max response, negative = inhibition turn out when `Cc1ccc(S(=O)(=O)N2C[C@H]3C(=O)C[C@@H](c4ccccc4)N(S(=O)(=O)c4ccccc4[N+](=O)[O-])[C@H]3C[C@H]2c2ccccc2)cc1` was run?
A: inconclusive: -42.3%

Q: With `CSc1nc(-c2ccccc2)c(-c2ccccc2)[nH]1` as the molecule, how does the max response, negative = inhibition read?
A: inconclusive: -35.9%

Q: For `COC(=O)c1ccc(N)c(N=CC2=C(O)CC(C)(C)CC2=O)c1`, which max response, negative = inhibition is on record?
A: active: -50.8%

Q: For `Nc1nc(CN2CCN(Cc3ccccc3)CC2)nc(Nc2ccccc2)n1`, which max response, negative = inhibition is on record?
A: inconclusive: -35%

Q: With `CC(=O)/C(=C/c1ccccc1)C(=O)Nc1ccccc1C` as the molecule, how does the max response, negative = inhibition read?
A: inconclusive: -30.3%

Q: How did the max response, negative = inhibition turn out when `Cc1cccc(CC(=O)Nc2ccc(C(=O)N3CCOCC3)cc2)c1` was run?
A: inconclusive: -34.4%

Q: For `CC(=O)Nc1nc2n(n1)C(c1ccc(F)cc1)C=C(c1ccccc1)N2` (configuration not stated), which max response, negative = inhibition is on record?
A: inconclusive: -44.1%

Q: How did the max response, negative = inhibition turn out when `Cc1cc(/C=N/NC(=O)c2ccc(O)cc2)c(C)n1C1CC1` was run?
A: active: -54%

Q: How did the max response, negative = inhibition turn out when `CC(NCc1nc2ccccc2n1C)C12CC3CC(CC(C3)C1)C2` (configuration not stated) was run?
A: active: -77.6%

Q: Which max response, negative = inhibition does the source give for `Cc1ccccc1N1CCN(C2CCCN(C(=O)c3noc4c3CCCC4)C2)CC1` (configuration not stated) here?
A: inconclusive: -33.6%

Q: Which max response, negative = inhibition does the source give for `CCn1cc(Cl)c(C(=O)N2N=C(c3ccc4ccccc4c3)CC2c2ccccc2O)n1` (configuration not stated) here?
A: inactive: 7.04%

Q: For `Cc1n[nH]c(C)c1C(=O)CC1(O)C(=O)N(CCc2ccccc2)c2ccc(Cl)cc21` (configuration not stated), which max response, negative = inhibition is on record?
A: inactive: 5.51%

Q: Which max response, negative = inhibition does the source give for `CSc1ccc(/C=N/N2CCN(Cc3ccc(Cl)cc3)CC2)cc1` here?
A: active: -54.2%

Q: `CCCCOc1ccc(NC(=O)CSc2nnnn2C)cc1` was tested. Which max response, negative = inhibition did it give?
A: active: -113%

Q: How did the max response, negative = inhibition turn out when `N#C/C(=C/c1ccc(Sc2nc3ccccc3[nH]2)o1)c1cccc(Br)c1` was run?
A: inactive: 13.5%

Q: For `CCc1nnc(-n2nc(C)cc2-c2ccccc2)n1N`, which max response, negative = inhibition is on record?
A: inconclusive: -43.1%

Q: How did the max response, negative = inhibition turn out when `Fc1ccccc1N1CCN(Cc2cccnc2)CC1` was run?
A: inconclusive: -35.7%

Q: Which max response, negative = inhibition does the source give for `Cc1cccc(-n2cc(CN(C)Cc3nccn3C)c(-c3cccc(F)c3)n2)c1` here?
A: inconclusive: -37.7%

Q: `COc1ccc2nc(SCC(=O)NC(C)C)[nH]c2c1` was tested. Which max response, negative = inhibition did it give?
A: inactive: 18.1%

Q: For `C=CS(=O)(=O)c1ccc(Oc2ccc(S(=O)(=O)C=C)cc2)cc1`, which max response, negative = inhibition is on record?
A: active: -91.4%

Q: How did the max response, negative = inhibition turn out when `Oc1ccc(Br)cc1-c1cc(-c2ccc(Cl)cc2)n[nH]1` was run?
A: inactive: -3.8%

Q: Which max response, negative = inhibition does the source give for `O=C(CSc1nc2cccc(F)c2c(=O)n1-c1ccccc1)Nc1ccc2c(c1)CCC2` here?
A: inactive: -3.93%

Q: With `N#Cc1ccc(Cn2c(-c3ccc(F)cc3)noc2=O)cc1` as the molecule, how does the max response, negative = inhibition read?
A: inconclusive: -32.9%

Q: `COc1ccc(NC(=O)CCC(=O)OCc2ccc(C(=O)Oc3ccc(Cl)cc3)cc2)cc1` was tested. Which max response, negative = inhibition did it give?
A: inconclusive: -31.9%

Q: `CCCCOC(=O)c1ccc(NC(=O)c2c(OC)cccc2OC)cc1` was tested. Which max response, negative = inhibition did it give?
A: inconclusive: -33.3%

Q: For `Oc1[nH]c2ccccc2c1C=Nc1ccc2c(c1)OCCO2`, which max response, negative = inhibition is on record?
A: inactive: 0%

Q: Which max response, negative = inhibition does the source give for `Cc1cc(C)cc(N(CC(=O)NCCSCc2ccco2)S(C)(=O)=O)c1` here?
A: inconclusive: -36.6%

Q: For `Cc1ccc(N=Nc2c(N)[nH]n3c(=O)cc(C)nc23)cc1`, which max response, negative = inhibition is on record?
A: inconclusive: -39.3%

Q: With `C=CCn1c(NCCc2ccccc2)nc2c1c(=O)n(C)c(=O)n2C` as the molecule, how does the max response, negative = inhibition read?
A: inactive: 10.4%

Q: How did the max response, negative = inhibition turn out when `CC(C)Nc1nc(NC(C)C)nc(N(C)N)n1` was run?
A: active: -53%

Q: How did the max response, negative = inhibition turn out when `O=C(NC1CCCC1)C(c1cccs1)N(C(=O)c1ccco1)c1ccc2c(c1)OCCO2` (configuration not stated) was run?
A: inconclusive: -46.6%

Q: How did the max response, negative = inhibition turn out when `CC(=O)NC(CCc1ccc(Cl)c(Cl)c1)c1cccc(O)c(=O)c1` (configuration not stated) was run?
A: inconclusive: -40%

Q: How did the max response, negative = inhibition turn out when `CCOC(=O)C1CCCN(C(=O)c2ccc(Cn3c(=S)[nH]c4cc(C(=O)OC)ccc4c3=O)cc2)C1` (configuration not stated) was run?
A: inactive: -19.2%

Q: How did the max response, negative = inhibition turn out when `CC1CCCc2sc3nc(NCc4ccco4)n4ncnc4c3c21` (configuration not stated) was run?
A: inconclusive: -39%

Q: `O=C(NC1CCCCC1)c1cc([N+](=O)[O-])ccc1N1CCCCC1` was tested. Which max response, negative = inhibition did it give?
A: inconclusive: -30.6%

Q: How did the max response, negative = inhibition turn out when `COc1ccc(Cl)cc1Nc1nc(C)cc(=O)[nH]1` was run?
A: active: -81%

Q: `CCN1CCN(c2ccc(S(=O)(=O)N3CCCCC3)cc2NC(=O)COc2ccccc2)CC1` was tested. Which max response, negative = inhibition did it give?
A: inconclusive: -34.1%

Q: How did the max response, negative = inhibition turn out when `CCCc1nc2cc(C)c(Br)c(C)n2c1Cc1ccccc1OC` was run?
A: inconclusive: -35.6%

Q: `C[C@H]1COC(=O)[C@H](CC(=O)OC(C)(C)C)C/C=C\C[C@@H](CC(=O)NCCO)C(=O)N1` was tested. Which max response, negative = inhibition did it give?
A: inconclusive: -44.3%

Q: For `O=C(COc1ccccc1Cl)N(Cc1ccco1)C1CCS(=O)(=O)C1` (configuration not stated), which max response, negative = inhibition is on record?
A: inconclusive: -36%

Q: How did the max response, negative = inhibition turn out when `COc1ccc(S(=O)(=O)NCC2CCCN(Cc3ccccc3Cl)C2)cc1` (configuration not stated) was run?
A: active: -51.8%

Q: With `C=CCn1cc(CN2CCC(C(=O)Nc3ccc(Oc4cccnc4)cc3)CC2)c(C)n1` as the molecule, how does the max response, negative = inhibition read?
A: inactive: 13%

Q: `COC(=O)CN1C(c2ccc(OC)cc2)=Nc2ccc(Cl)cc2C1c1ccccc1` (configuration not stated) was tested. Which max response, negative = inhibition did it give?
A: active: -60%

Q: `O=C1/C(=C\c2ccccc2)CN(C(=O)CCN2CCCCC2)C/C1=C/c1ccccc1` was tested. Which max response, negative = inhibition did it give?
A: active: -61.9%

Q: How did the max response, negative = inhibition turn out when `CCOC(=O)c1ccccc1NC(=O)COC(=O)CCCOc1ccccc1` was run?
A: inconclusive: -49.8%

Q: `CCN1CCN(C(=O)Nc2ccccc2OC)CC1` was tested. Which max response, negative = inhibition did it give?
A: inconclusive: -33.7%

Q: With `O=S1(=O)CCO[C@H]2Cc3ccccc3[C@H]2N1Cc1ccccc1F` as the molecule, how does the max response, negative = inhibition read?
A: inactive: 0%
